Experimental data: PubChem BioAssay AID1259308 (NCATS, 2017)
The deposit covers about 59,000 reagents; shown is a part drawn at random. In the full data, about 1,510 (2.6%) are marked active. 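Calls use total luciferase alone and ignore viability, so some active siRNAs may act by altering cell number.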 Reagents against one gene are numbered here.

Purpose: 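Genes whose loss raises luciferase production in HEK293 cells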 (primary screen)
Cell system: human HEK293 embryonic kidney cells stably expressing firefly luciferase (HEK-CMV-Luc2-Hygro)
Reagents: single siRNA against human genes, 0.8 pmol siRNA per well
Time to read-out: 72 h
Detection: 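Reporter luminescence and viable-cell signal on separate replicate plates, given as percent of non-targeting control and median/MAD z-scores, plus per-cell luciferase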
Reading the numbers: total luciferase, z-score and total luciferase, % of control: higher = more reporter protein produced; luciferase per cell, z-score: higher = more reporter output per viable cell; viable cells, % of control: higher = more viable cells
Active means: 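An siRNA counts as active if its total luciferase robust z-score exceeds 3; genes with two or more such siRNAs out of three were retested with fresh siRNAs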
Calls: active = raised luciferase; inactive = no rise

gene	siRNA no.	total luciferase, z-score	total luciferase, % of control	luciferase per cell, z-score	viable cells, % of control	call
SPTSSA (serine palmitoyltransferase small subunit A)	1	0.687	95.6	0.605	91.1	inactive
SPTSSA (serine palmitoyltransferase small subunit A)	2	-0.0827	80.2	-0.0438	90.7	inactive
SPTSSA (serine palmitoyltransferase small subunit A)	3	0.547	92.8	0.85	82.9	inactive
AGT (angiotensinogen)	1	-0.0269	81.4	0.104	88.4	inactive
AGT (angiotensinogen)	2	0.697	95.7	-0.258	115	inactive
AGT (angiotensinogen)	3	-1.9	44	-1.28	69	inactive
HTR7 (5-hydroxytryptamine receptor 7)	1	0.774	97.3	1.25	78.2	inactive
HTR7 (5-hydroxytryptamine receptor 7)	2	1.44	111	1.68	79.3	inactive
HTR7 (5-hydroxytryptamine receptor 7)	3	-0.287	76.2	-0.926	109	inactive
SIRT5 (sirtuin 5)	1	1.12	104	0.258	109	inactive
SIRT5 (sirtuin 5)	2	-0.353	74.9	-1.02	110	inactive
SIRT5 (sirtuin 5)	3	-0.0983	79.9	-0.172	93.4	inactive
TMOD2 (tropomodulin 2)	1	1.66	115	1.09	96.4	inactive
TMOD2 (tropomodulin 2)	2	0.493	91.7	0.0709	101	inactive
TMOD2 (tropomodulin 2)	3	-0.736	67.2	-0.605	88.1	inactive
SLC4A2	1	0.777	97.3	0.643	91.8	inactive
SLC4A2	2	-2.07	40.7	-1.18	62.1	inactive
SLC4A2	3	-1.3	56.1	-1.34	89.3	inactive
DHRSX (dehydrogenase/reductase X-linked)	1	-0.0721	80.5	-0.509	103	inactive
DHRSX (dehydrogenase/reductase X-linked)	2	0.761	97	0.856	86.5	inactive
DHRSX (dehydrogenase/reductase X-linked)	3	1.36	109	1.13	90.3	inactive
MFAP3 (microfibril associated protein 3)	1	0.852	98.8	1.03	84.2	inactive
MFAP3 (microfibril associated protein 3)	2	-0.0122	81.6	0.0182	90.8	inactive
MFAP3 (microfibril associated protein 3)	3	0.311	88.1	-0.137	102	inactive

Continued; the last 2 above are carried over.
gene	siRNA no.	total luciferase, z-score	total luciferase, % of control	luciferase per cell, z-score	viable cells, % of control	call
MFAP3 (microfibril associated protein 3)	2	-0.0122	81.6	0.0182	90.8	inactive
MFAP3 (microfibril associated protein 3)	3	0.311	88.1	-0.137	102	inactive
H2BC11 (H2B clustered histone 11)	1	-0.196	78	-0.146	90.6	inactive
H2BC11 (H2B clustered histone 11)	2	-1.97	42.7	-1.5	70.8	inactive
H2BC11 (H2B clustered histone 11)	3	2.25	127	0.98	109	inactive
CNOT1 (CCR4-NOT transcription complex subunit 1)	1	2.43	130	1.83	89.8	inactive
CNOT1 (CCR4-NOT transcription complex subunit 1)	2	4.25	166	2.51	96	active
CNOT1 (CCR4-NOT transcription complex subunit 1)	3	5.91	199	3.82	81.5	active
ASPSCR1 (ASPSCR1 tether for SLC2A4, UBX domain containing)	1	1.37	109	1.63	79.5	inactive
ASPSCR1 (ASPSCR1 tether for SLC2A4, UBX domain containing)	2	0.0108	82.1	0.12	88.9	inactive
ASPSCR1 (ASPSCR1 tether for SLC2A4, UBX domain containing)	3	-1.24	57.2	-1.42	92.8	inactive
HTRA3 (HtrA serine peptidase 3)	1	-0.975	62.5	-0.791	86	inactive
HTRA3 (HtrA serine peptidase 3)	2	-1.21	57.8	-1.78	103	inactive
HTRA3 (HtrA serine peptidase 3)	3	0.982	101	1.7	72.5	inactive
UNC93A (unc-93 homolog A)	1	1.64	115	0.714	106	inactive
UNC93A (unc-93 homolog A)	2	1.04	103	0.452	102	inactive
UNC93A (unc-93 homolog A)	3	0.158	85	-0.254	102	inactive
ZPLD1 (zona pellucida like domain containing 1)	1	0.0714	83.3	-0.723	113	inactive
ZPLD1 (zona pellucida like domain containing 1)	2	-0.537	71.2	-0.856	99.7	inactive
ZPLD1 (zona pellucida like domain containing 1)	3	0.12	84.3	0.5	82.6	inactive
BFSP2 (beaded filament structural protein 2)	1	2.87	139	2.57	78.9	inactive
BFSP2 (beaded filament structural protein 2)	2	-1.36	54.9	-0.313	66.6	inactive
BFSP2 (beaded filament structural protein 2)	3	2.35	129	2.57	73	inactive
ATP5MG (ATP synthase membrane subunit g)	1	0.842	98.6	0.112	107	inactive
ATP5MG (ATP synthase membrane subunit g)	2	-0.143	79.1	0.419	79.1	inactive
ATP5MG (ATP synthase membrane subunit g)	3	0.272	87.3	-0.338	107	inactive
TARS1 (threonyl-tRNA synthetase 1)	1	-0.672	68.5	-1.37	110	inactive
TARS1 (threonyl-tRNA synthetase 1)	2	0.125	84.4	-0.427	105	inactive
TARS1 (threonyl-tRNA synthetase 1)	3	-0.543	71.1	-0.518	91.1	inactive
PARPBP (PARP1 binding protein)	1	-0.782	66.3	-1.13	99.8	inactive
PARPBP (PARP1 binding protein)	2	0.188	85.6	0.174	91.4	inactive
PARPBP (PARP1 binding protein)	3	-2.78	26.6	-4.84	106	inactive
CYP46A1 (cytochrome P450 family 46 subfamily A member 1)	1	-1.42	53.6	-1.79	96.1	inactive
CYP46A1 (cytochrome P450 family 46 subfamily A member 1)	2	-1.1	59.9	-1.11	89.8	inactive
CYP46A1 (cytochrome P450 family 46 subfamily A member 1)	3	0.625	94.3	1.56	70	inactive
